Here are results for seven sequences from patent US6380170.

Chains of the proteins cited; added tags and fusions are not shown. Lines headed by an entry give the natural chain unless they say otherwise; changes in a name come on top. A line that says so, or that is headed by a name, gives the form on record, which may keep a tag or linker.
DP-1/E2F-1 (Homo sapiens), one chain, as listed by the source, chain 2 of 2: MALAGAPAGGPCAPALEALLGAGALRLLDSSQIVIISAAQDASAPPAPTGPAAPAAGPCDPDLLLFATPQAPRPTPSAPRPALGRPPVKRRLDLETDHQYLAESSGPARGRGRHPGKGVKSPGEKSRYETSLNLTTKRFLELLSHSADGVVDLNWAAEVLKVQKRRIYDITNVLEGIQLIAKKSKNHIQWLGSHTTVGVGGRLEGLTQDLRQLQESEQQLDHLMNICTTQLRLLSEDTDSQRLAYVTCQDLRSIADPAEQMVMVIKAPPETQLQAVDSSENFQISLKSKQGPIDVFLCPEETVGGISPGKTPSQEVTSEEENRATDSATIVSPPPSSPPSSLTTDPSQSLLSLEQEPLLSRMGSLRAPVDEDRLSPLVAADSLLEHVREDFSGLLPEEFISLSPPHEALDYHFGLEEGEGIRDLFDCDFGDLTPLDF
DP-1/E2F-4 (Homo sapiens), one chain, as listed by the source, chain 2 of 2: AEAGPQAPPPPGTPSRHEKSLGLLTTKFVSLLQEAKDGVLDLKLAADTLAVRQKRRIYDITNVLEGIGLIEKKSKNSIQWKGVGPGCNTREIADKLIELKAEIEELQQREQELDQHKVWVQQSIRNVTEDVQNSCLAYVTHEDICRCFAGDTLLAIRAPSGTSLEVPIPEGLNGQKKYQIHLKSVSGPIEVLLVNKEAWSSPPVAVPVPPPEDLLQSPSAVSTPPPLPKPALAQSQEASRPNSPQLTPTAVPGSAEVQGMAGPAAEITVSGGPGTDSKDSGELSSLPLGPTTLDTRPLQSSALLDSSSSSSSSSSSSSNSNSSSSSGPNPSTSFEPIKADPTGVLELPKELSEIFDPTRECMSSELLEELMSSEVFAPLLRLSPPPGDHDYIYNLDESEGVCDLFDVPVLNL
DP-1/E2F-4 (Homo sapiens), one chain, as listed by the source, chain 1 of 2: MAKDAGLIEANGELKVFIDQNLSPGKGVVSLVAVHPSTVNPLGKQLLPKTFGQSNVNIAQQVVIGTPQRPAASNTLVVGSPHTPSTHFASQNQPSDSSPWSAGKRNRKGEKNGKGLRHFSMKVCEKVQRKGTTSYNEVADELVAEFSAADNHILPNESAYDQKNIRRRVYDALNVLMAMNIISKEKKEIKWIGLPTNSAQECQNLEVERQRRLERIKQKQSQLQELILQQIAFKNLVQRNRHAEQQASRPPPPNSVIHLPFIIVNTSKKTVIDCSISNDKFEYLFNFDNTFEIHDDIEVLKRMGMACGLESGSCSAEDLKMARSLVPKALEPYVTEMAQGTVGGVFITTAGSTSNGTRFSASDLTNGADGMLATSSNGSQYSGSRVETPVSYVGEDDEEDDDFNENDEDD
DP-1/E2F-3 (Homo sapiens), one chain, as listed by the source, chain 2 of 2: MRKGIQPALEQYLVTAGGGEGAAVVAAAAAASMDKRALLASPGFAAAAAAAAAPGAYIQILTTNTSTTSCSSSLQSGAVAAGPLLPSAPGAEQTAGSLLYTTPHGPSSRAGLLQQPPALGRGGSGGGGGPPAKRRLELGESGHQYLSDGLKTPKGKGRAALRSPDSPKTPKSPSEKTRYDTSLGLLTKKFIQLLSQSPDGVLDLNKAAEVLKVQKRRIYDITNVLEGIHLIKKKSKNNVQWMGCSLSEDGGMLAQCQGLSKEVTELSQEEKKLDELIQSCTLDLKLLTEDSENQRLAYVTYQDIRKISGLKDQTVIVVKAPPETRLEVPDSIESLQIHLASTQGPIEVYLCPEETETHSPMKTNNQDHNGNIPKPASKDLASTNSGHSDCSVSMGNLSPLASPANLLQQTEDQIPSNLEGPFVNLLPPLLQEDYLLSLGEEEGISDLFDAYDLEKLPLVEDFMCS

Results from cells or extracts need not show a direct contact. For some assays here: The exact form of at least one protein or probe is not confirmed. For some assays here: The comparison behind a weaker result is the experiment's own reference, which may not be listed here.

Data set [1] has as its system CDF-1 (CDE-CHR binding factor) (Homo sapiens). Kind of data set: competition with a labelled probe. As to conditions: protein in an extract, variant of cdc25C-wt CDE-CHR.
Data set [2] has the same test system. Put plainly: footprint. As to conditions: in vitro DMS; four G in CDE and two A in CHR protected; protein in an extract.
For data set [3] the test system is unchanged. Put plainly: EMSA. The note with it: protein in an extract.
Data set [4] relates to DP-1/E2F-4 (Homo sapiens). Kind of data set: EMSA. The note with it: protein in an extract, protein details: HeLa nuclear extract.
Data set [5] relates to DP-1/E2F-3 (Homo sapiens). Put plainly: EMSA. The note with it: protein in an extract, protein details: HeLa nuclear extract.
In data set [6] the test system is DP-1/E2F-1 (Homo sapiens). Kind of data set: EMSA. The note with it: protein in an extract, protein details: HeLa nuclear extract.
[7] abbreviates: region 4 change does not affect E2F, variant of B-myb E2FBS-CHR.
Setting [8] is: high efficiency, variant of cdc25C-wt CDE-CHR.

“ACTGGGCTGGCGGAAGGTGGTCATGGTCAA (double strand) [cdc25C-6/-3 (mCHR)]”: in data set [1] (diminished EMSA competition), the binding result is “binds more weakly”.
Consider “ACTGGGCTGGCGGAAGGTTTGAAGGTTCAA (double strand) [cdc25C-1/+2]”, for which the binding result in data set [1] (EMSA competition as wild type) is on record as “binds”.
For “ACTGGGCTGGCGGAAGGTTTGAATGGTCAA (double strand) [cdc25C-wt CDE-CHR]”, the binding result in data set [2] and in data set [3] (HeLa nuclear extract) was “binds” throughout.
Consider “ACTGGGCTGGCGGAAGGTTTGACTGGTCAA (double strand) [cdc25C-2]”, for which the binding result in data set [1] (diminished EMSA competition) is reported as “binds more weakly”.
Regarding “ACTGGGCTGGCGGACTTGTTGAATGGTCAA (double strand) [cdc25C-10/-7]”, the binding result in data set [1] (diminished EMSA competition, text prints -10/-1) is “binds more weakly”.
Take “ACTTGGCGGGAGATTTGAAT (double strand) [B-C4]”: the binding result in data set [4] (setting [7]) was “binds”; in data set [5] (setting [7]) it was “binds”; in data set [3] (strong increase versus wild-type B-myb, variant of B-myb E2FBS-CHR) it was “binds”; in data set [6] (setting [7]) it was “binds”.
As to “GCTTGGCGGGAGGTTTGAAT (double strand) [C-B1,2]”, the binding result in data set [4] (setting [8]) is recorded as “binds”; in data set [5] (setting [8]), “binds”; in data set [3] (unaffected versus cdc25C wild type, variant of cdc25C-wt CDE-CHR) it was “binds”; in data set [6] (setting [8]) it was “binds”.
